Experimental data as given in publication PMC5706888.
Results are given in words; binding and its absence hold for the method and conditions named. Binding seen in cells or lysates may run through a third protein. These calls come from enrichment with a bait or labelling near it, and not all partners need be listed. Where a sequence is shown, tags or fusion partners need not be part of it.

Biological target: T1, HA-tagged UL21 of bovine herpesvirus 1 (Bovine herpesvirus 1 (strain IBRV HB06)) (UniProt K4P3K8)
T1 sequence: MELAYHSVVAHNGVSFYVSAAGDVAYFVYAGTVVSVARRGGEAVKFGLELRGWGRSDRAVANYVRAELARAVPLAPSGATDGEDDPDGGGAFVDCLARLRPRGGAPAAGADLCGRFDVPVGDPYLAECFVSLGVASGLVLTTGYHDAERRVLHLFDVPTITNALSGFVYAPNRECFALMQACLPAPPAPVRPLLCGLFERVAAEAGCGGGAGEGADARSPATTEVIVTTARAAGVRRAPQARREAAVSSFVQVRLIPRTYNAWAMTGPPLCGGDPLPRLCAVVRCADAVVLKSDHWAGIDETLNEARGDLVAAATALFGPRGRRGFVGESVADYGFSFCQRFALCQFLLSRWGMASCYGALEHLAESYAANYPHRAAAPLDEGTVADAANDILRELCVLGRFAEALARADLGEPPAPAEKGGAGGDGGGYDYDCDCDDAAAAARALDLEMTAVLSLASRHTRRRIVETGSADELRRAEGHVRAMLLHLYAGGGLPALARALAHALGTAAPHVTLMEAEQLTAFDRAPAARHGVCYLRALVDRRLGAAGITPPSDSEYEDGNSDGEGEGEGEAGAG
Assay: affinity purification with mass spectrometry; lysates of MDBK cells infected with vBoHV-1-UL21-HA or wild-type BoHV-1 (MOI 3, 18 hpi) incubated with anti-HA monoclonal antibody magnetic agarose beads for 5 to 6 h at 4°C; five washes; SDS-PAGE, silver staining, excised band analysed by LC-MS

## UL16 of bovine herpesvirus 1
  binding: binds
